Experimental findings from patent publication US20260125736A1 (FLAREON BIOTECH GMBH, priority 2023, published 2026) are described below.

End groups of sequences in plain letters are not given here. Where only a bound is given, the exact number is not on record here.

This data set can be described thus: general procedure: Fmoc solid-phase peptide synthesis; 2-chlorotrityl chloride resin (CTC-Resin); HOBT/DIC/DIPEA (Biotage) or oxyma/DIC (Liberty Blue). As to conditions: whole synthesis, HPLC and LC-MS, scale of the general procedure 100 μmol.

In the case of RTAMTAGA, the “purity (crude or final not stated)” value is listed as >95%.

Regarding RTAMGAGA, the “purity (crude or final not stated)” value was >95%.

Consider “Ac-K(Dabcyl)-RRARSVAS-E(Edans) (KRRARSVASE; Ac-K(Dabcyl) N-term; E(Edans) C-term; SITE 1 acetylated lysine; SITE 10 glutamate modified with Edans (5-((2-Aminoethyl)amino)naphthalene-1-sulfonic acid); SITE 1 lysine modified with Dabcyl (4-((4-(Dimethylamino)phenyl)azo)benzoic acid))”, for which the “purity (crude or final not stated)” value is given as >95%.

As for RRARSVAS, the “purity (crude or final not stated)” value was >95%.

As for GTAMTAGA, the “purity (crude or final not stated)” value is given as >95%.

Regarding “Ac-EG-K(Dabcyl)-RTAMTAGA-E(Edans)-GE (EGKRTAMTAGAEGE; Ac cap, Dabcyl, Edans; SITE 1 acetylated glutamate; SITE 12 glutamate modified with Edans (5-((2-Aminoethyl)amino)naphthalene-1-sulfonic acid); SITE 3 lysine modified with Dabcyl (4-((4-(Dimethylamino)phenyl)azo)benzoic acid))”, the “purity (crude or final not stated)” value is >75%.

In the case of GTAMGAGA, the “purity (crude or final not stated)” value is on record as >95%.

As for RTAMSAGA, the “purity (crude or final not stated)” value is listed as >95%.

For SSARSVAS, the “purity (crude or final not stated)” value is on record as >95%.

Turning to RTAGSAGA, the “purity (crude or final not stated)” value was >95%.
